Where two headings read alike, the source gives them in different places.
What was measured:
THP-1 = experiment: Host cell toxicity: THP-1 host nuclei counts in the image-based assay; settings: for GI50: Homo sapiens, THP-1, 72 h, read-out: GI50 THP-1
Description: Sterile, black, 96-well, clear bottom plates (Greiner Bio-One) were seeded with exponentially growing THP-1 (5×10^5cells/ml). THP-1 were treated with 0.1 µM phorbol myristate acetate (PMA, Sigma) at 37°C for 48 h to achieve differentiation into adherent, non-dividing macrophages. Maturation of THP-1 cells towards monocyte-macrophage like cells is essential to avoid parasitized cells being overgrown by replicating cells. After activation by PMA, cells were washed and incubated with complete RPMI medium containing stationary phase L. donovani promastigotes at a macrophage/promastigote ratio of 1/15. After 4 h incubation at 37°C, non-internalized promastigotes were removed by 2–3 successive washes with RPMI containing 5% FBS and 5% horse serum. Test compounds (10 µM), positive control (2 µM amphotericin B) or negative control (1% DMSO) were then added to the cultures using a Biomek FXp liquid handler (Beckman Coulter). Cultures were incubated at 37°C for 72 h. Cells were then washed with phosphate-buffered saline (PBS), fixed for 30 minutes with 4% formaldehyde, rinsed again with PBS, stained for 2 h with 4′,6′-diamidino-2-phenylindole (DAPI 300 nM) and finally washed with PBS. […] Images were acquired with an INCell Analyzer 1000 automated epi-fluorescent microscope (G.E. Healthcare). The excitation and emission filters used to detect DAPI were 350/50 nm and 460/40 nm respectively. Eight image fields were acquired per well with a 20X objective. The proprietary INCell Developer Toolbox 1.7 software was used for image analysis. Segmentation parameters were set to identify host nuclei with a minimum area of 250 µm^2 and parasite kinetoplast with an average area of 1 µm^2. The intensity of parasite nucleus was too low to be detected with a 20X objective. A border, representing the boundary of the cell, was drawn around the nucleus (total area between 700 and 2000 µm^2). Only parasites found within this area were included in the calculation to eliminate extracellular parasites. False positive parasite detection in the nucleus was also excluded from the calculation. Host cell nuclei and parasite kinetoplasts were counted and the ratio of parasites DNA to host nuclei was selected as the measurement output. Percentage inhibition of parasite growth was calculated as [1-(P/hcx-P/hc^+)/(P/hc^−-P/hc^+)]*100 where P/hcx, P/hc^+ and P/hc^− are parasite per host cell ratio for every well, positive control (amphotericin B) and negative control (DMSO) respectively. Calculation of Z' factor and GI50 curve fitting were carried out as described above.

[1] = test system: L. donovani intracellular amastigotes; experiment: Intracellular amastigote high-throughput image-based assay in infected THP-1 macrophages; assay type: cell-based; settings: Leishmania donovani, THP-1, 72 h, read-out: GI50 Intracellular amastigote
Description: Sterile, black, 96-well, clear bottom plates (Greiner Bio-One) were seeded with exponentially growing THP-1 (5×10^5cells/ml). THP-1 were treated with 0.1 µM phorbol myristate acetate (PMA, Sigma) at 37°C for 48 h to achieve differentiation into adherent, non-dividing macrophages. Maturation of THP-1 cells towards monocyte-macrophage like cells is essential to avoid parasitized cells being overgrown by replicating cells. After activation by PMA, cells were washed and incubated with complete RPMI medium containing stationary phase L. donovani promastigotes at a macrophage/promastigote ratio of 1/15. After 4 h incubation at 37°C, non-internalized promastigotes were removed by 2–3 successive washes with RPMI containing 5% FBS and 5% horse serum. Test compounds (10 µM), positive control (2 µM amphotericin B) or negative control (1% DMSO) were then added to the cultures using a Biomek FXp liquid handler (Beckman Coulter). […] The intensity of parasite nucleus was too low to be detected with a 20X objective. […] Host cell nuclei and parasite kinetoplasts were counted and the ratio of parasites DNA to host nuclei was selected as the measurement output. Percentage inhibition of parasite growth was calculated as [1-(P/hcx-P/hc^+)/(P/hc^−-P/hc^+)]*100 where P/hcx, P/hc^+ and P/hc^− are parasite per host cell ratio for every well, positive control (amphotericin B) and negative control (DMSO) respectively. […]

[2] = test system: L. donovani promastigotes; experiment: Promastigote high-throughput ATP-bioluminescence assay; assay type: cell-based; settings: Leishmania donovani, read-out: GI50 Promastigote
Description: L. donovani promastigotes from an exponentially growing culture were diluted to 10^6/ml in RPMI containing 10% FBS and 10% BHT. The diluted culture (99 µl/well) was dispensed in sterile 96-well flat white opaque assay plates (Greiner Bio-One) using a WellMate multichannel dispenser (Matrix). 1 µl of 1 mM test compound dissolved in DMSO was added to the plates for a final concentration of 10 µM compound and 1% DMSO. Amphotericin B was added as a positive control (final concentration 2 µM, 1% DMSO) and as a negative control, 1 µl DMSO was added (1% final concentration). Compounds and controls were added to the assay plate with the robotic dispenser Biomek FXp liquid handler (Beckman Coulter). Promastigotes were incubated with the compounds for 72 h at 27°C. […] After lysis, the resulting ATP-bioluminescence was measured using the Analyst HT plate reader (Molecular Devices). Percentage inhibition of parasite growth was calculated for each well as [1-(RLUx-RLU^+)/(RLU^--RLU^+)]*100 where RLUx, RLU^+ and RLU^- are respectively the Relative Light Units for each well, positive (amphotericin B) and negative (DMSO) controls. […] The Z' factor, calculated as 1-(3σc++3σc−)/(µc+−µc−) where σc+, σc−, µc+ and µc− are respectively the standard deviation and mean values of positive and negative controls, is reflective of the assay signal dynamic range and the data variation associated with signal measurement. […]

[3] = test system: L. donovani axenic amastigotes; experiment: Dose response study against axenic amastigotes (CellTiter-Glo); assay type: cell-based; settings: Leishmania donovani, read-out: GI50 Axenic amastigote
Description: L. donovani axenic amastigotes (5×10^5 cells/ml in axenic amastigote media) were dispensed in sterile 96-well flat white opaque assay plates (Greiner Bio-One) using a WellMate multichannel dispenser (Matrix). […] 1% DMSO and amphotericin B (2 µM, 1% DMSO final concentration) were added as negative and positive controls respectively. Axenic amastigotes were incubated with the compounds for 72 h at 37°C with 5% CO2. Parasite viability was then measured using CellTiter-Glo as described above.

| Structure (SMILES) | Selectivity (THP-1) | GI50 (THP-1) [nM] | GI50 [1] [nM] | GI50 ([2]; 72 h) [nM] | GI50 ([3]; 72 h) [nM] | Selectivity (THP-1; ratio between parasite GI50 and THP-1 GI50) | GI50 ([1]; L. donovani in THP-1, 72 h, parasites per host cell) [nM] | GI50 ([2]; 72 h at 27°C, CellTiter-Glo) [nM] | GI50 ([3]; 72 h at 37°C, CellTiter-Glo) [nM] |
| --- | --- | --- | --- | --- | --- | --- | --- | --- | --- |
| CCCCCCCCCCCCCCCC[n+]1ccccc1 [Cetylpyridinium chloride] | 22.34 | 9160 | 410 | 3300 | 920 |  |  |  |  |
| Clc1ccc(CO/N=C(\Cn2ccnc2)c2ccc(Cl)cc2Cl)c(Cl)c1 [Oxiconazole] |  | > 16500 |  |  |  | 2.51 | 6600 | 2650 | 530 |

From article PMC3139667, “A Screen against Leishmania Intracellular Amastigotes: Comparison to a Promastigote Screen and Identification of a Host Cell-Specific Hit” (PLoS Neglected Tropical Diseases, 2011)
